From EP4563586A1, “NEW INHIBITORS OF LRRK2/PP1 INTERACTION” (Université Paris Cité, priority 2023, dated 2025)
At least one peptide structure holds a part that was inferred or is arguable (an end, a ring closure or a residue). Some compounds share one wording; it may come from a single statement. Blank lines part the entries; values can stand above or below the compound they belong to. Non-standard residues stand in square brackets, D forms with d. Residues, ends and D or L forms follow the SMILES beside them. No end group written: not given here. Ahx = NCCCCCC(=O)O

Columns and labels:
LRRK2/PP1 interaction = test: In vitro competition assay of LRRK2/PP1 interaction (PP1 immunoprecipitation, western blot); type: biochemical, human; details: 1 mM of peptide, 30 min at room temperature, lysates from MDA-MB231 cell line
LRRK2 = test: In vitro binding of PP1 peptides to LRRK2 (overlapping peptides on cellulose membrane); set-up: species or system human
PC12 cell line = test: Internalization of shuttle peptide in neuronal cells; type: cell-based; details: in vitro
reelin = test: Binding of shuttle peptide to reelin

binding to LRRK2 (LRRK2): bind to LRRK2 in vitro
Compound: AEVVAKFLHKHDLDLICRAH [Peptide 20]
inhibition of LRRK2/PP1 interaction (LRRK2 detected in PP1 immunoprecipitates after competition) (LRRK2/PP1 interaction): inhibition of LRRK2/PP1 interaction is also observed

binding to LRRK2 (LRRK2): bind to LRRK2 in vitro
Compound: NPGGRPITPPRNSAKAKK [Peptide 21, NPGGRPITPPRNSAKAKK]
inhibition of LRRK2/PP1 interaction (LRRK2 detected in PP1 immunoprecipitates after competition) (LRRK2/PP1 interaction): inhibition of LRRK2/PP1 interaction is also observed

binding to reelin (reelin): specifically bound reelin
Compound: SRRVISRAKLAAAL [SEQ ID NO:1, SRRVISRAKLAAAL]
internalization within neuronal cells (PC12 cell line): efficiently internalized

Further lines, the compound ahead of its results:

Compound: CC[C@H](C)[C@H](NC(=O)[C@H](CCC(=O)O)NC(=O)[C@H](CC(C)C)NC(=O)[C@H](CC(C)C)NC(=O)[C@H](CCCNC(=N)N)NC(=O)[C@H](CC(N)=O)NC(=O)[C@@H](NC(=O)[C@H](CC(C)C)NC(=O)[C@H](CCCNC(=N)N)NC(=O)[C@H](CO)NC(=O)[C@H](Cc1c[nH]c2ccccc12)NC(=O)[C@H](Cc1ccccc1)NC(=O)CN)[C@@H](C)CC)C(=O)NCCCCCC(=O)N[C@@H](CO)C(=O)N[C@@H](CCCNC(=N)N)C(=O)N[C@@H](CCCNC(=N)N)C(=O)N[C@H](C(=O)N[C@H](C(=O)N[C@@H](CO)C(=O)N[C@@H](CCCNC(=N)N)C(=O)N[C@@H](C)C(=O)N[C@@H](CCCCN)C(=O)N[C@@H](CC(C)C)C(=O)N[C@@H](C)C(=O)N[C@@H](C)C(=O)N[C@@H](C)C(=O)N[C@@H](CC(C)C)C(=O)O)[C@@H](C)CC)C(C)C [Peptide 1, GFWSRLINRLLEI- AHx -SRRVISRAKLAAAL] (H-GFWSRLINRLLEI[Ahx]SRRVISRAKLAAAL-OH)
inhibition of LRRK2/PP1 interaction (LRRK2 detected in PP1 immunoprecipitates after competition) (LRRK2/PP1 interaction): No band reacting with LRRK2 is observed

Compound: GFWSRLINRLLEIGGSSRRVISRAKLAAAL [Peptide 2, GFWSRLINRLLEI- GGS -SRRVISRAKLAAAL]
inhibition of LRRK2/PP1 interaction (LRRK2 detected in PP1 immunoprecipitates after competition) (LRRK2/PP1 interaction): No band reacting with LRRK2 is observed

Compound: VQGSRPGKNVQLTENE [Peptide 19, VQGSRPGKNVQLTENE]
inhibition of LRRK2/PP1 interaction (LRRK2 detected in PP1 immunoprecipitates after competition) (LRRK2/PP1 interaction): not detected | binding to LRRK2 (LRRK2): bind to LRRK2 in vitro
